Reference: article PMC11732086 (2024)

Target: T1, BD-OsTORFRB (rice) (UniProt Q0DJS1)
T1 sequence: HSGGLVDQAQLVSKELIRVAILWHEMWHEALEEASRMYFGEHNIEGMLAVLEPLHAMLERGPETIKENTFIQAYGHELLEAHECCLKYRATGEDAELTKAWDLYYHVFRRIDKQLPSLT
Assay: two-hybrid; double transformation of BD (pGBKT7) and AD (pGADT7) vectors in yeast; growth on QDO (SD-Leu-Trp-His-Ade) against DDO (SD-Leu-Trp); 200 μL (normal) or 600 μL (high) inoculation; blue colonies with X-α-Gal

AD-OsFKBP12 (full length, 1-112 AA) (rice)
binding: binds weakly

These are yes or no findings as the source states them, for the method shown. Binding can be weak; no strength is given. Tags and fused reporters may be left off the sequences shown.
